Laboratory results from US20100183625A1, “Treatment of Mucositis with Kallikrein Inhibitors” (Dyax Corp., priority 2009, published 2010).

Experiment: SDS-PAGE / mass spectrometry of expressed IgG: cleavage by host cell protease
Details: expressed in 293T cells, Table 9

Row | Molecule | Intact as an IgG?
1 | X69-D09: single point mutation of M142-H08 (P1′); HV-CDR3 GGLLLWFRGLKSNYFDY (antibody, V domains shown) VL: QDIQMTQSPSSLSAFVGDRVTITCRASQPIDNYLNWYHQKPGKAPKLLIYAASRLQSGVPSRLSGSGFGTDFTLTISSLQPEDFGNYYCQQSYTVPYTFGGGTKVEIR VH: EVQLLESGGGLVQPGGSLRLSCAASGFTFSAYSMIWVRQAPGKGLEWVSYIRPSGGRTTYADSVKGRFTISRDNSKNTLYLQMNSLRAEDTAVYYCARGGLLLWFRGLKSNYFDYWGQGTLVTVSSASTKGPSVFPLAPSSKS | No
2 | X67-E04: single point mutation of M142-H08 (P2); HV-CDR3 GGLLLWDRELKSNYFDY (antibody, V domains shown) VL: QDIQMTQSPSSLSAFVGDRVTITCRASQPIDNYLNWYHQKPGKAPKLLIYAASRLQSGVPSRLSGSGFGTDFTLTISSLQPEDFGNYYCQQSYTVPYTFGGGTKVEIR VH: EVQLLESGGGLVQPGGSLRLSCAASGFTFSAYSMIWVRQAPGKGLEWVSYIRPSGGRTTYADSVKGRFTISRDNSKNTLYLQMNSLRAEDTAVYYCARGGLLLWDRELKSNYFDYWGQGTLVTVSSASTKGPSVFPLAPSSKS | Yes
3 | X67-C09: single point mutation of M142-H08 (P2); HV-CDR3 GGLLLWGRELKSNYFDY (antibody, V domains shown) VL: QDIQMTQSPSSLSAFVGDRVTITCRASQPIDNYLNWYHQKPGKAPKLLIYAASRLQSGVPSRLSGSGFGTDFTLTISSLQPEDFGNYYCQQSYTVPYTFGGGTKVEIR VH: EVQLLESGGGLVQPGGSLRLSCAASGFTFSAYSMIWVRQAPGKGLEWVSYIRPSGGRTTYADSVKGRFTISRDNSKNTLYLQMNSLRAEDTAVYYCARGGLLLWGRELKSNYFDYWGQGTLVTVSSASTKGPSVFPLAPSSKS | Yes
4 | X69-F05: single point mutation of M142-H08 (P1′); HV-CDR3 GGLLLWFRLLKSNYFDY (antibody, V domains shown) VL: QDIQMTQSPSSLSAFVGDRVTITCRASQPIDNYLNWYHQKPGKAPKLLIYAASRLQSGVPSRLSGSGFGTDFTLTISSLQPEDFGNYYCQQSYTVPYTFGGGTKVEIR VH: EVQLLESGGGLVQPGGSLRLSCAASGFTFSAYSMIWVRQAPGKGLEWVSYIRPSGGRTTYADSVKGRFTISRDNSKNTLYLQMNSLRAEDTAVYYCARGGLLLWFRLLKSNYFDYWGQGTLVTVSSASTKGPSVFPLAPSSKS | No
5 | X67-G05: single point mutation of M142-H08 (P2); HV-CDR3 GGLLLWRRELKSNYFDY (antibody, V domains shown) VL: QDIQMTQSPSSLSAFVGDRVTITCRASQPIDNYLNWYHQKPGKAPKLLIYAASRLQSGVPSRLSGSGFGTDFTLTISSLQPEDFGNYYCQQSYTVPYTFGGGTKVEIR VH: EVQLLESGGGLVQPGGSLRLSCAASGFTFSAYSMIWVRQAPGKGLEWVSYIRPSGGRTTYADSVKGRFTISRDNSKNTLYLQMNSLRAEDTAVYYCARGGLLLWRRELKSNYFDYWGQGTLVTVSSASTKGPSVFPLAPSSKS | No
6 | X69-B08: single point mutation of M142-H08 (P1′); HV-CDR3 GGLLLWFRNLKSNYFDY (antibody, V domains shown) VL: QDIQMTQSPSSLSAFVGDRVTITCRASQPIDNYLNWYHQKPGKAPKLLIYAASRLQSGVPSRLSGSGFGTDFTLTISSLQPEDFGNYYCQQSYTVPYTFGGGTKVEIR VH: EVQLLESGGGLVQPGGSLRLSCAASGFTFSAYSMIWVRQAPGKGLEWVSYIRPSGGRTTYADSVKGRFTISRDNSKNTLYLQMNSLRAEDTAVYYCARGGLLLWFRNLKSNYFDYWGQGTLVTVSSASTKGPSVFPLAPSSKS | No
7 | X69-F09: single point mutation of M142-H08 (P1′); HV-CDR3 GGLLLWFRSLKSNYFDY (antibody, V domains shown) VL: QDIQMTQSPSSLSAFVGDRVTITCRASQPIDNYLNWYHQKPGKAPKLLIYAASRLQSGVPSRLSGSGFGTDFTLTISSLQPEDFGNYYCQQSYTVPYTFGGGTKVEIR VH: EVQLLESGGGLVQPGGSLRLSCAASGFTFSAYSMIWVRQAPSKGLEWVSYIRPSGGRTTYADSVKGRFTISRDNSKNTLYLQMNSLRAEDTAVYYCARGGLLLWFRSLKSNYFDYWGQGTLVTVSSASTKGPSVFPLAPSSKS | No
8 | X69-C12: single point mutation of M142-H08 (P1′); HV-CDR3 GGLLLWFRVLKSNYFDY (antibody, V domains shown) VL: QDIQMTQSPSSLSAFVGDRVTITCRASQPIDNYLNWYHQKPGKAPKLLIYAASRLQSGVPSRLSGSGFGTDFTLTISSLQPEDFGNYYCQQSYTVPYTFGGGTKVEIR VH: EVQLLESGGGLVQPGGSLRLSCAASGFTFSAYSMIWVRQAPGKGLEWVSYIRPSGGRTTYADSVKGRFTISRDNSKNTLYLQMNSLRAEDTAVYYCARGGLLLWFRVLKSNYFDYWGQGTLVTVSSASTKGPSVFPLAPSSKS | No
9 | X69-A09: single point mutation of M142-H08 (P1′); HV-CDR3 … (antibody, V domains shown) VL: QDIQMTQSPSSLSAFVGDRVTITCRASQPIDNYLNWYHQKPGKAPKLLIYAASRLQSGVPSRLSGSGFGTDFTLTISSLQPEDFGNYYCQQSYTVPYTFGGGTKVEIR VH: EVQLLESGGGLVQPGGSLRLSCAASGFTFSAYSMIWVRQAPGKGLEWVSYIRPSGGRTTYADSVKGRFTISRDNSKNTLYLQMNSLRAEDTAVYYCARGGLLLWFRSLKSNYFDYWGQGTLVTVSSASTKGPSVFPLAPSSKS | No
10 | X68-E01: single point mutation of M142-H08 (P3); HV-CDR3 GGLLLLFRELKSNYFDY (antibody, V domains shown) VL: QDIQMTQSPSSLSAFVGDRVTITCRASQPIDNYLNWYHQKPGKAPKLLIYAASRLQSGVPSRLSGSGFGTDFTLTISSLQPEDFGNYYCQQSYTVPYTFGGGTKVEIR VH: EVQLLESGGGLVQPGGSLRLSCAASGFTFSAYSMIWVRQAPGKGLEWVSYIRPSGGRTTYADSVKGRFTISRDNSKNTLYLQMNSLRAEDTAVYYCARGGLLLLFRELKSNYFDYWGQGTLVTVSSASTKGPSVFPLAPSSKS | No
11 | X67-G09: single point mutation of M142-H08 (P2); HV-CDR3 GGLLLWLRELKSNYFDY (antibody, V domains shown) VL: QDIQMTQSPSSLSAFVGDRVTITCRASQPIDNYLNWYHQKPGKAPKLLIYAASRLQSGVPSRLSGSGFGTDFTLTISSLQPEDFGNYYCQQSYTVPYTFGGGTKVEIR VH: EVQLLESGGGLVQPGGSLRLSCAASGFTFSAYSMIWVRQAPGKGLEWVSYIRPSGGRTTYADSVKGRFTISRDNSKNTLYLQMNSLRAEDTAVYYCARGGLLLWLRELKSNYFDYWGQGTLVTVSSASTKGPSVFPLAPSSKS | No
12 | X69-F01: single point mutation of M142-H08 (P1′); HV-CDR3 GGLLLWFRTLKSNYFDY (antibody, V domains shown) VL: QDIQMTQSPSSLSAFVGDRVTITCRASQPIDNYLNWYHQKPGKAPKLLIYAASRLQSGVPSRLSGSGFGTDFTLTISSLQPEDFGNYYCQQSYTVPYTFGGGTKVEIR VH: EVQLLESGGGLVQPGGSLRLSCAASGFTFSAYSMIWVRQAPSKGLEWVSYIRPSGGRTTYADSVKGRFTISRDNSKNTLYLQMNSLRAEDTAVYYCARGGLLLWFRTLKSNYFDYWGQGTLVTVSSASTKGPSVFPLAPSSKS | No
13 | X67-B04: single point mutation of M142-H08 (P2); HV-CDR3 GGLLLWKRELKSNYFDY (antibody, V domains shown) VL: QDIQMTQSPSSLSAFVGDRVTITCRASQPIDNYLNWYHQKPGKAPKLLIYAASRLQSGVPSRLSGSGFGTDFTLTISSLQPEDFGNYYCQQSYTVPYTFGGGTKVEIR VH: EVQLLESGGGLVQPGGSLRLSCAASGFTFSAYSMIWVRQAPGKGLEWVSYIRPSGGRTTYADSVKGRFTISRDNSKNTLYLQMNSLRAEDTAVYYCARGGLLLWKRELKSNYFDYWGQGTLVTVSSASTKGPSVFPLAPSSKS | No
14 | X69-E01: single point mutation of M142-H08 (P1′); HV-CDR3 GGLLLWFRWLKSNYFDY (antibody, V domains shown) VL: QDIQMTQSPSSLSAFVGDRVTITCRASQPIDNYLNWYHQKPGKAPKLLIYAASRLQSGVPSRLSGSGFGTDFTLTISSLQPEDFGNYYCQQSYTVPYTFGGGTKVEIR VH: EVQLLESGGGLVQPGGSLRLSCAASGFTFSAYSMIWVRQAPGKGLEWVSYIRPSGGRTTYADSVKGRFTISRDNSKNTLYLQMNSLRAEDTAVYYCARGGLLLWFRWLKSNYFDYWGQGTLVTVSSASTKGPSVFPLAPSSKS | No
15 | X67-B03: single point mutation of M142-H08 (P2); HV-CDR3 GGLLLWSRELKSNYFDY (antibody, V domains shown) VL: QDIQMTQSPSSLSAFVGDRVTITCRASQPIDNYLNWYHQKPGKAPKLLIYAASRLQSGVPSRLSGSGFGTDFTLTISSLQPEDFGNYYCQQSYTVPYTFGGGTKVEIR VH: EVQLLESGGGLVQPGGSLRLSCAASGFTFSAYSMIWVRQAPGKGLEWVSYIRPSGGRTTYADSVKGRFTISRDNSKNTLYLQMNSLRAEDTAVYYCARGGLLLWSRELKSNYFDYWGQGTLVTVSSASTKGPSVFPLAPSSKS | Yes
16 | X67-H04: single point mutation of M142-H08 (P2); HV-CDR3 GGLLLWERELKSNYFDY (antibody, V domains shown) VL: QDIQMTQSPSSLSAFVGDRVTITCRASQPIDNYLNWYHQKPGKAPKLLIYAASRLQSGVPSRLSGSGFGTDFTLTISSLQPEDFGNYYCQQSYTVPYTFGGGTKVEIR VH: EVQLLESGGGLVQPGGSLRLSCAASGFTFSAYSMIWVRQAPGKGLEWVSYIRPSGGRTTYADSVKGRFTISRDNSKNTLYLQMNSLRAEDTAVYYCARGGLLLWERELKSNYFDYWGQGTLVTVSSASTKGPSVFPLAPSSKS | Yes
